# The other results are listed elsewhere or left out.
# B1: il2ra_site1_3nfp_sap_12_mot_HHH_b2_05615_000000234_0001_23_39_H_._HHH_b1_03367_0001_0000300010_0000001_0_0001 (protein)
# chain: SSSDREEVAEEVVRRLVEELGLDRAAKRALERAAEKAIEMGFSPEEIEKALEDAARMFRRIVSSS
# B2: il2ra_site1_2b5i_normal_mot_HHH_b2_04910_000000118_0001_1_19_H_._HHH_b1_02796_0001_0000200016_0000001_0_af2pred_dldesign_0_af2pred (protein)
# chain: SSSSSKGEEIRRLIREADALYKKGDPRAIDVLERALELAKEAKMPLDVKMVESALKQLRVESSSS
# B3: il2ra_site1_1z92_normal_mot_01209686ea234b34325f918445e6eade_0001_af2_000000154_0001_18_33_H_._a4d94f43bc0d423f3d0edd362bd39fea_0001_af2_0001_0000200009_0000001 … (protein)
# chain: DLEEEIRRVAEELGIPPEELEVFEKDLKAVEKLVGDPELALKMLLNAAKKAGNEELFQLAELVLK
# B4: il2ra_site1_1z92_normal_mot_HHH_b2_04985_000000147_0001_1_19_H_._HHH_b1_01979_0001_0000100006_0000001_0_af2pred_0001_af2pred_swapped (protein)
# chain: SSSSSKLEKNAEYVVELAVKLAGLDEEEKRQLEEVARELVERGLSFREINKELDRVANELSSSSS
# B5: il2ra_site1_3nfp_normal_mot_HHH_b1_07440_af2_000000231_0001_1_19_H_._HHH_b1_08742_af2_0001_0000200019_0000001_0_af2pred_0001_af2pred_1_swapped (protein)
# chain: SSSSSEKAEELFEEARELIEELLERGDPREASRVVEEAARRLFRLGNPELAEELLEYARRSSSSS
# B6: il2ra_site2_3nfp_sap_22_mot_HHH_b1_07242_000000112_0001_19_39_H_._dbaaacb3030748eb94c4e142aa50db7a_0001_0001_0000400037_0000001_0_0001_af2pred_0001_af2pred (protein)
# chain: SSSDEEERIRELLKEIEELLKEGNDEEAEELLEEARKLIRELGDIELLVELLELRELVEEKSSSS
# B7: il2ra_site1_3nfp_sap_6_mot_58e3eb3031e6d57439b1b965989c2868_0001_af2_000000159_0001_19_34_H_._8a6a1400aecb8ca28daff083fb65bf78_0001_1_af2_0001_0000300017_000000 … (protein)
# chain: SSSSDEELQELAREIDKAFKNGDREKAEELIEKAEELAEELGDPDARKQLKYLLEALRRSKSSSS
# B8: il2ra_site2_2erj_normal_mot_HHH_b2_07139_000000086_0001_40_57_H_._HHH_b2_03810_af2_0001_0001000014_0000001_0 (protein)
# chain: SSSSDDEKEVRELLEEAEEAWKEGDLELVFELLSRALHVASQSQDPELQELVIEFFEELTSSSSS
# B9: il2ra_site2_3nfp_sap_19_mot_HHH_eva_0376_af2_000000005_0001_25_42_H_._9a8b2cb7a75b34899a74317597b2dbd0_0001_1_0001_0000500026_0000001_0_0001 (protein)
# chain: SSSSDVEELLERVKELIEEGDLSEAAHVLMEAAERVRELNDPELFKKLLELYEELAREYRSSSSS
# B10: il2ra_site1_2b5i_normal_mot_HHH_b1_02271_000000068_0001_1_16_H_._HHH_b1_03521_af2_0001_0000500042_0000001_0_af2pred_dldesign_0_af2pred (protein)
# chain: SSSSSAKRAEIERLVAEAERLKKEGKRREALELLEEAYKLADELGDEELADELEERAKKISSSSS
# B11: il2ra_site2_2erj_normal_mot_76e6e8f7232a9e65eeaab5ff8ecb4c96_0001_000000231_0001_17_31_H_._HHH_b2_04542_0001_0000300016_0000001_0 (protein)
# chain: SSSSSELEERVQELLEEARKLLENGNPEEAASAVIEAAALAVRNRDPELEKEVRELFTEIYSSSS
# B12: il2ra_site1_3nfp_normal_mot_HHH_b2_01814_000000033_0001_1_16_H_._HHH_b1_05657_0001_0000200019_0000001_0_af2pred_0001_af2pred_1_swapped (protein)
# chain: SSSSTEESRRARELIRRISELIREGNPEEAEELLEELEELARERGSRAAELFVRRLRRHLSSSSS
# B13: il2ra_site1_2b5i_sap_10_mot_HHH_b1_02271_000000068_0001_1_16_H_._HHH_b2_04442_af2_0001_0000300031_0000001_0_0001 (protein)
# chain: SSSDEDHELTRFAVRVVWQLMVRLGLSAEQAHELNKLAVELVDEGYSEEEIEKILRELAEELSSS
# B14: il2ra_site1_3nfp_sap_10_mot_07104d7dbe42e49ee5b1eb09eb0325d4_0001_1_000000060_0001_1_15_H_._a3670c5829215c526ff869221da29923_0001_af2_0001_0000200004_0000001_0_ … (protein)
# chain: SSSSDVRKEFQRLVRELRKLNKEGDKERARELLEELERIVEEVNDEIAKRLLRQLEEAVESSSSS
# B15: il2ra_site1_1z92_sap_10_mot_HHH_b2_00249_af2_000000052_0001_39_52_H_._HHH_b2_00694_af2_0001_0000200005_0000001_0_0001 (protein)
# chain: SSSSDEEELEELAELVMEAMRKWDRELLEHLLELLEELIKKTGDPSARRVLEELEEYLKMLSSSS
# B16: il2ra_site1_3nfp_normal_mot_HHH_b1_05931_000000015_0001_42_57_H_._c0fd2ee23bf7eac90f0defb3b9babf8d_0001_0001_0000300012_0000001_0_af2pred_0001_af2pred_1_swapped (protein)
# chain: SEASRIFKEVSRRGLLSPEAVQAIFELARRIVRKGDPELLRLYREIIELLKRNVEEAEELAEKLR
# B17: il2ra_site2_3nfp_normal_mot_HHH_b2_05976_000000001_0001_22_38_H_._HHH_b2_06395_0002_0000200077_0000001_0 (protein)
# chain: SSSDEEEVEKLLRQAEEKLEEGNPEEARRLLQEAALLAAELRNHEAFALVLEVLARFIQANSSSS
# B18: il2ra_site1_3nfp_sap_14_mot_HHH_b2_07180_000000236_0001_22_38_H_._1ea06dbd6b6845823c0bc83f2773458f_0001_1_af2_0001_0000300013_0000001_0_0001 (protein)
# chain: DADEYLVEVALRDANGNPELAVEWLERVAEQTGVPPEALERAVEEVLEKTGDPLVELILELLKRK
# Target: il2ra, P01589
# Assay: yeast display titration
row,Binder,apparent Kd
1,B1,inactive: no binding seen
2,B2,inactive: no binding seen
3,B3,inactive: no binding seen
4,B4,inactive: no binding seen
5,B5,inactive: no binding seen
6,B6,inactive: no binding seen
7,B7,inactive: no binding seen
8,B8,inactive: no binding seen
9,B9,inactive: no binding seen
10,B10,inactive: no binding seen
11,B11,inactive: no binding seen
12,B12,inactive: no binding seen
13,B13,inactive: no binding seen
14,B14,inactive: no binding seen
15,B15,inactive: no binding seen
16,B16,inactive: no binding seen
17,B17,inactive: no binding seen
18,B18,inactive: no binding seen

# Part of the list above, bar-delimited:
row | Binder | apparent Kd
15 | B15 | inactive: no binding seen
16 | B16 | inactive: no binding seen
